# Results of single-concentration screens

The chains behind the UniProt entries cited, without tags or fusion partners. Residues count along the entry.
UniProt P9WPC5, whole entry: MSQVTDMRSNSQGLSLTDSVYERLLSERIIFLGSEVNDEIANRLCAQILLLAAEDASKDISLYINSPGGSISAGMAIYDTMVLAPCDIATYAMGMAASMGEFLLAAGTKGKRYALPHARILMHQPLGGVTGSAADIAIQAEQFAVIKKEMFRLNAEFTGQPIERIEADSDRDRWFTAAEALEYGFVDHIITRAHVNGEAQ
UniProt P9WPC3, whole entry partner: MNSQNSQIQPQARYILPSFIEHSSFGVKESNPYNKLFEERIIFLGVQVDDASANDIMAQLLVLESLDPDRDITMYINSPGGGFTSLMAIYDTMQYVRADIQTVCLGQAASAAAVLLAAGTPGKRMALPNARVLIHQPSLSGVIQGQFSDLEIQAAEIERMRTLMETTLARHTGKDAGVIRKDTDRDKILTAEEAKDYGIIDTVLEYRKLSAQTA
UniProt Q8IDJ8, 1-583: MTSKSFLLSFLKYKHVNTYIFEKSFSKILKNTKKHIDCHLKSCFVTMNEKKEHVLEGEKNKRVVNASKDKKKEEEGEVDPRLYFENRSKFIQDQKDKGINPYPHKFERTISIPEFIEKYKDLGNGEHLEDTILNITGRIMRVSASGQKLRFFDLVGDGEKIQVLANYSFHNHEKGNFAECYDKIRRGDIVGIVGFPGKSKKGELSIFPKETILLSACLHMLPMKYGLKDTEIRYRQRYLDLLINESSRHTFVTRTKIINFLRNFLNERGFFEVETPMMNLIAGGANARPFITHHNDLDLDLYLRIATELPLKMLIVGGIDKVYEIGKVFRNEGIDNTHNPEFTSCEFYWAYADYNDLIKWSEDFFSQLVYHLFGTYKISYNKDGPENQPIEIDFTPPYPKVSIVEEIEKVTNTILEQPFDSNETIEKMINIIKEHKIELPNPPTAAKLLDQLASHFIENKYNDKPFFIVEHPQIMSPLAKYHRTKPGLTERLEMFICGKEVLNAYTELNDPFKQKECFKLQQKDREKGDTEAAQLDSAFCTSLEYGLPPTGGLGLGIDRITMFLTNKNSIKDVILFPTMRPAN
UniProt P9WFT3, whole entry: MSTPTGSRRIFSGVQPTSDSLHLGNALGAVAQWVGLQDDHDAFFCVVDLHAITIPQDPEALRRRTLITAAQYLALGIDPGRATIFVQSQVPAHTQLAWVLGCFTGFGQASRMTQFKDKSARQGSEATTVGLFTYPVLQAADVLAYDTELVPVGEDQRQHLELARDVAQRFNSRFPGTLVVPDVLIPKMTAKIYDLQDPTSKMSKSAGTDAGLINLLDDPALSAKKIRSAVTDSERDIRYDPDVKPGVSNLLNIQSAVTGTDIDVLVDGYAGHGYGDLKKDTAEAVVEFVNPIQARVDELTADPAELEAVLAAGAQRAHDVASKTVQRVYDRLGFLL
UniProt A4I591, 1-473: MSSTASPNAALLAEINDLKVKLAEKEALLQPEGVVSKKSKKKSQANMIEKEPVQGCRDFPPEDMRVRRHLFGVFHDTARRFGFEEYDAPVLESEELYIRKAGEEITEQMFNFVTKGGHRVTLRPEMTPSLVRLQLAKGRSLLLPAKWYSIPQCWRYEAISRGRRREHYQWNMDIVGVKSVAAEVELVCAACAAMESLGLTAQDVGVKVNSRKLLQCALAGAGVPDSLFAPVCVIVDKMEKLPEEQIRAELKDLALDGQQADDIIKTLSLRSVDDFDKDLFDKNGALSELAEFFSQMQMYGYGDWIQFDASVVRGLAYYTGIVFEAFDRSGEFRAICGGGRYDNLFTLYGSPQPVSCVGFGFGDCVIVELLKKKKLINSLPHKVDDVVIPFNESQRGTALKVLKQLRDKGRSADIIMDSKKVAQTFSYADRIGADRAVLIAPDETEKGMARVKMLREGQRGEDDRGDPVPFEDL
UniProt Q4DA54, 1-478: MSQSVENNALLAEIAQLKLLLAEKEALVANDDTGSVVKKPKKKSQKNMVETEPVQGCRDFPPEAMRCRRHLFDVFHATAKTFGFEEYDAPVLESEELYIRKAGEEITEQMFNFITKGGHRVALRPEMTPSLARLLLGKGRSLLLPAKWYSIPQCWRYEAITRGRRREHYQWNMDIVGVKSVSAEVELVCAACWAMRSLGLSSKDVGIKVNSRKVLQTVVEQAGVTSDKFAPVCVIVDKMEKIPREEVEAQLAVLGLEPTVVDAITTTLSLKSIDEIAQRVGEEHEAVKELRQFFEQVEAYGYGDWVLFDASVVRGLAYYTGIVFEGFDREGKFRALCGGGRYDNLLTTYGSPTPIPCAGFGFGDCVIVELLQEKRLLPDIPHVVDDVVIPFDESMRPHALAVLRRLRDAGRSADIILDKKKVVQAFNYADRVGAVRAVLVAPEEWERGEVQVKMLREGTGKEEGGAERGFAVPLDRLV

ClpP1P2: 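ClpP1P2, Mycobacterium tuberculosis (UniProt P9WPC5 and UniProt P9WPC3). Protease assay of ClpP1P2, read by the AMC dye that it sets free. Compounds at 50 µM. Higher reads as stronger inhibition, judged from the few compounds that gave an IC50. Most other retested compounds had strongly negative values. Size under these conditions: about 69,000 compounds, about 10 of them at 50% or above in at least one test.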
PfKRS1: 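Lysine-tRNA ligase, Plasmodium falciparum 3D7 (UniProt Q8IDJ8). Enzyme assay of the cytosolic lysyl-tRNA synthetase in 384-well plates, read by luminescence. Compounds at 30 µM. Higher reads as stronger inhibition, judged from the few compounds that gave an IC50. Of about 69,000 compounds tested this way, about 49 (0.071%) reached 50% or more in at least one test.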
MtTrpRS: 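Tryptophan-tRNA ligase, Mycobacterium tuberculosis (UniProt P9WFT3). Enzyme assay of tryptophanyl-tRNA synthetase; the read-out is not stated. Concentration: 10 µM. Higher most likely means stronger inhibition; the record gives no direction and few retests gave an IC50. Size under these conditions: about 65,000 compounds, about 64 of them at 50% or above in at least one test.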
LiHisRS: 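Histidine-tRNA ligase, Leishmania infantum (UniProt A4I591). Enzyme assay of histidyl-tRNA synthetase; the read-out is not stated. Concentration: 30 µM. Direction is inferred from retests: higher values go with stronger inhibition. The assay is labelled LdHisRS but filed under L. infantum. About 69,000 compounds were tested under these conditions; 0.6% (about 410) showed 50% or more at least once.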
TcHisRS: 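Enzyme assay of histidyl-tRNA synthetase; the read-out is not stated. Target: Histidine-tRNA ligase, Trypanosoma cruzi CL Brener (UniProt Q4DA54). Tested at 30 µM. The record gives no direction; compounds that gave an IC50 in retests scored well above the rest, so higher reads as stronger inhibition. Of about 69,000 compounds tested this way, about 31 (0.045%) reached 50% or more in at least one test.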
Leishmania in macrophages: 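Cell assay of Leishmania donovani living inside macrophages; the read-out is not stated. Concentration: 30 µM. The record gives no direction; compounds that gave an IC50 in retests scored well above the rest, so higher reads as stronger inhibition. Size under these conditions: about 69,000 compounds, about 1,000 of them at 50% or above in at least one test.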

Values are the deposited “Percent Effect”, in %. The controls that fix the scale are not given in the record; negative values are as filed. This is an unselected part of the compounds tested. Two or more numbers in one place are separate tests of the same structure; such repeats can differ widely. A dash means the value is not listed here; it may have been measured.

| compound | ClpP1P2 | PfKRS1 | MtTrpRS | LiHisRS | TcHisRS | Leishmania in macrophages |
|---|---|---|---|---|---|---|
| `Cc1n[nH]c(C)c1NC(=O)CN1CCCC1Cn1cncn1` (stereo unspecified) | -28.79% | -0.82% | 0.5092% | 6.173% | 6.696% | 7.131% |
| `CC(C)(C)c1n[nH]cc1CNC1CCC(OCC(F)(F)F)CC1` (stereo unspecified) | -4.781% | -0.943% | 3.826% | 15.66% | 6.468% | - |
| `O=C(N1CCCO1)[C@]12COC[C@H]1CN(Cc1cccnc1)C2` | 9.289% | 4.133% | -2.609% | 19.66% | 6.952% | - |
| `CC(C)N(C)C(=O)CN1CCCC(c2ccc(C(=O)O)cc2)C1` (stereo unspecified) | 6.428% | -1.147% | 4.595% | 11.43% | 0% | -10.94% |
| `OCC1(CCOc2ccccc2)CCCN(c2ccc(Cl)cn2)C1` (stereo unspecified) | -22.22% | -2.022% | -2.826% | 13.6% | 5.528% | 18.15% |
| `CN(C)C(=O)N[C@@H]1CN(S(C)(=O)=O)[C@@H]2CCCO[C@@H]21` | -8.363% | -3.819% | 12.19% | -1.754% | 4.301% | - |
| `CCC(C)N(Cc1cccnc1)C(=O)c1ccc(NS(=O)(=O)CC)cc1` (stereo unspecified) | -5.486% | 2.756% | 1.078% | 14.29% | 8.247% | 8.978% |
| `Cc1cc(CN2CCC(C3CCN(Cc4cccnc4)CC3)C2)[nH]n1` (stereo unspecified) | -8.506% | 2.356% | -0.5757% | 19.61% | 6.173% | 0.3857% |
| `CCc1nnc2n1CCN(C(=O)c1csc(-c3cnn(C)c3)n1)C2` | -4.702% | 5.312% | -2.464% | 18.27% | 1.626% | 12.66% |
| `CN(CCc1cccc2ccccc12)Cc1nc(N)nc(N(C)C)n1` | -2.947% | -5.569% | 1.125% | -3.109% | 6.077% | 94.18% |
| `COC(=O)C1CCN(C(=O)c2ccc(C)c(NS(C)(=O)=O)c2)CC1` | -8.873% | -0.9282% | -2.256% | 1.905% | 9.917% | -24.03% |
| `CC(NCc1ccncc1)c1cc(F)ccc1N1CCN(C)CC1` (stereo unspecified) | -11.38% | 3.879% | -2.012% | 16.98% | -1.695% | 19.97% |
| `CC(C)(O)c1cc(CC2(NCC3CCCCC3)COC2)no1` | -1.247% | -0.5044% | 3.111% | 4.054% | 5.435% | -0.6669% |
| `O=C(CN1CCN(c2ncnc3c2CCNCC3)CC1)N1CCCCC1` | -3.877% | -1.317% | 1.238% | 14.17% | 6.579% | 15% |
| `Cc1noc(C)c1S(=O)(=O)NCC(C)(O)c1ccc2c(c1)OCO2` (stereo unspecified) | 9.784% | 8.454% | -0.07598% | 8.696% | -1.031% | 4.358% & 9.671% |
| `O=C(C1=CCCC1)N1CCC[C@]2(C[C@@H](OCc3ccccn3)CO2)C1` | -14.41% | 3.71% | -3.625% | 25% | 2.488% | - |
| `Cc1noc(C)c1CN1C[C@@H](NS(=O)(=O)N(C)C)[C@H](C(C)C)C1` | -1.2% | 1.182% | -1.917% | 12.68% | 0.6369% | 18.86% |
| `CN(C)CC1(O)CCCN(C(=O)CCn2cc(Cl)cn2)C1` (stereo unspecified) | 11.84% | -10.77% | 18.14% | -4% | -0.5291% | 11.41% |
| `c1cc(-c2n[nH]c(CNc3nnc(C4CC4)o3)n2)ccn1` | -5.919% | 5.655% | 1.89% | 19.67% | 6.061% | 42.16% |
| `CCOC(=O)N1CCC(NC(=O)c2cccc(C3CCCNC3)c2)CC1` (stereo unspecified) | -6.773% | 2.274% | 0.6121% | 13.25% | 6.468% | 34.67% |
| `CN(Cc1ccc(Cl)s1)C(=O)COc1cccc(C(N)=O)c1` | 16.2% | 8.305% | 11.52% | 10.2% | 10.26% | -2.098% |
| `CN(C)C1CCN(c2cc(-c3ccccc3)nc3ccnn23)C1` (stereo unspecified) | -194.9% | 1.873% | -4.72% | 15.56% | 7.879% | 17.6% |
| `Cc1nc(C2CCN(CC(=O)NC3CC3)CC2)cc(N2CCOCC2)n1` | 0.7894% | 5.329% | -4.617% | 2.778% | 4.082% | 17.91% |
| `O=c1cc(CN(CCO)C2CC2)nc2ccccn12` | -4.303% | -0.4754% | -7.385% | 8.333% | 9.091% | -16.89% |
| `c1ccc2oc(CCCN3CCc4cncnc4C3)nc2c1` | -27.29% | 0.239% | -4.413% | 35.71% | 22.48% | 23.08% |
| `O=C(c1ccc[nH]1)N1CCn2cc(Cn3cncn3)nc2C1` | -1.252% | 0.03575% | 3.348% | 2.19% | 4.918% | -5.445% |
| `Cc1ccc(-c2nc(C(=O)N(C)CC(=O)N3CCCC3)cs2)c(C)c1` | -7.307% | 5.877% | -4.187% | 20.16% | 11.9% | 4.814% |
| `c1ccc(-c2cccc(N3CCC(NCCc4cscn4)CC3)c2)cc1` | -8.067% | 1.039% | 1.374% | 13.92% | 9.052% | 97.96% |
| `Cc1cccc(CN2CCN3C[C@H](Oc4cncnc4)C[C@H]3C2)n1` | 0.4036% | 2.55% | - | 11.71% | 2.21% | - |
| `[H][C@@]12C[C@H](C(=O)NCc3cccnc3)[C@@]([H])(CN(CC(C)C)C1)O2` | - | - | - | - | - | 0.2743% |
| `CN(CCN1CCOCC1)C(=O)CCc1cccc(Cl)c1` | 9.06% | -0.03482% | -0.3178% | 17.14% | 4.348% | -5.679% |
| `CCn1ncnc1CN1CCc2[nH]cnc2C1Cc1ccccc1` (stereo unspecified) | -4.813% | 3.586% | -2.805% | 13.33% | 5.978% | 9.07% |
| `O=C(c1ccc[nH]1)N1C[C@H]2CC[C@@H]1CN(C1Cc3ccccc3C1)C2` | -7.171% | 7.503% | -3.856% | 26.42% | 0% | - |
| `[H][C@]12CC[C@]([H])(CN(Cc3cscn3)C1)N(C(=O)c1nc(C)c[nH]1)C2` | - | - | - | - | - | 30.82% |
| `COc1c(CNCc2ccc(N3CCCC3)nc2)c(C(C)C)nn1C` | -29.87% | -0.8527% | -0.1883% | 23.21% | 5.325% | 38.31% |
| `CC(Cn1ccnc1)NC(=O)C1(c2ccccc2)CC1` (stereo unspecified) | 0.4455% | -0.4877% | -8.796% | 12.73% | 5.263% | 20.13% |
| `CC(=O)N1CCCC(c2ccc(N3CCN(C)CC3)cn2)C1` (stereo unspecified) | 4.566% | 1.514% | - | 8% | 4.494% | 3.204% |
| `COCCN1C(=O)CCC12CCN(C(=O)CC1CC1)CC2` | 3.114% | -7.964% | 0.9924% | 0% | 3.759% | -12.81% |
| `CC1CCN(Cn2nc(-c3ccc(F)cc3)oc2=O)CC1` | 13.86% | 2.608% | -2.798% | 5.479% | 1.527% | -15.15% |
| `O=C1CCSCC(C(=O)N2CCC(O)CC2)N1` (stereo unspecified) | -15.35% | 6.751% | 3.856% | 20.51% | 1.205% | 11.34% & 2.125% |
| `CCC(CO)N(Cc1ccccn1)Cc1ccc(-c2ccn[nH]2)s1` (stereo unspecified) | -1.572% | 5.302% | -1.107% | -1.075% | 3.665% | 31.75% |
| `CNc1nnc(SCc2nnc(C(C)(C)C)o2)s1` | 6.012% | 0.3644% | -2.353% | 24.1% | 6.077% | 20.11% |
| `CCC(O)CNC(=O)c1coc(COc2ccc3sc(C)nc3c2)n1` (stereo unspecified) | -6.126% | -4.926% | -4.063% | -1.923% | 6.612% | 15.36% |
| `[H][C@@]12CC[C@@]([H])(C1)N(CCC(=O)N1CCN(c3cc(C)cc(C)c3)C(=O)C1)C2` | - | - | - | - | - | 22.23% |
| `OC1CCN(c2ccnc3c(F)cc(Br)cc23)CC1` | -0.4397% | 0.216% | 2.849% | 4.505% | 11.67% | -8.108% |
| `Cc1cc(NC(=O)N2CCCC2C(C)(C)O)c2ncccc2c1` (stereo unspecified) | -2.899% | 3.612% | 4.113% | 12.35% | 6.748% | -49.54% |
| `CC(C)N1CCC(CC(=O)NCc2cc(O)ncn2)CC1` | 1.8% | 6.975% | -3.536% | 11.76% | 3.704% | 14.03% |
| `CCN(C)S(=O)(=O)NCC1CCCN(Cc2ccccc2F)C1` (stereo unspecified) | -6.941% | 5.048% | 0.2987% | 16.46% | 4.741% | -11.05% |
| `O=C(COc1ccc2c(c1)CCC2)NS(=O)(=O)c1cncc(Br)c1` | 4.941% | 3.798% | 3.786% | 19.15% | -2.29% | 7.094% |
| `Cc1nnc(NC(=O)CCc2c(C)nn3cnnc3c2C)s1` | -4.371% | 0.02418% | -1.54% | 7.692% | -3.093% | 1.857% |

The values are deposited in ChEMBL (CHEMBL3988442, “University of Dundee, Small-Polar-MMV Screening Library” (2021)).